Paper doi:10.1101/2022.07.21.500829
These are yes or no findings as the source states them, for the method shown. In cells and extracts the contact can be indirect. A yes stands for co-enrichment or nearness to the bait. Other partners may have been found.

Protein sequences, listed by entry. Tags and fused reporters are not part of them. Residues count along the entry.
UniProt P41439, residues 23-245: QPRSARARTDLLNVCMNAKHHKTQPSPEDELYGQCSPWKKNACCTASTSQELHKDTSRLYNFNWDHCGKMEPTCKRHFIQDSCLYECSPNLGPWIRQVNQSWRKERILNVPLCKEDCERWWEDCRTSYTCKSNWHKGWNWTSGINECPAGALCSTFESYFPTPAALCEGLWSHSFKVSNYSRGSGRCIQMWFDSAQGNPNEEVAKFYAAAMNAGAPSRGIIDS
UniProt Q16769, residues 29-361: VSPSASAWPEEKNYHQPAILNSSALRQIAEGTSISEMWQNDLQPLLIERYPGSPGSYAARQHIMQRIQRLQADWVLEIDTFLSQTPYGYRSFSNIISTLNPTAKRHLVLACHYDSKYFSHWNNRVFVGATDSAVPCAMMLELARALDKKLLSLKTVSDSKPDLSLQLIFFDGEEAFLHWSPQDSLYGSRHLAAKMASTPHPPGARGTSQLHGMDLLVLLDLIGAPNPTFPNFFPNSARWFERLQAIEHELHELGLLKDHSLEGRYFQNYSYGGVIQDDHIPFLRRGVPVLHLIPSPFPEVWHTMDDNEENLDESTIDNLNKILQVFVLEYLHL
UniProt Q92743, residues 23-480: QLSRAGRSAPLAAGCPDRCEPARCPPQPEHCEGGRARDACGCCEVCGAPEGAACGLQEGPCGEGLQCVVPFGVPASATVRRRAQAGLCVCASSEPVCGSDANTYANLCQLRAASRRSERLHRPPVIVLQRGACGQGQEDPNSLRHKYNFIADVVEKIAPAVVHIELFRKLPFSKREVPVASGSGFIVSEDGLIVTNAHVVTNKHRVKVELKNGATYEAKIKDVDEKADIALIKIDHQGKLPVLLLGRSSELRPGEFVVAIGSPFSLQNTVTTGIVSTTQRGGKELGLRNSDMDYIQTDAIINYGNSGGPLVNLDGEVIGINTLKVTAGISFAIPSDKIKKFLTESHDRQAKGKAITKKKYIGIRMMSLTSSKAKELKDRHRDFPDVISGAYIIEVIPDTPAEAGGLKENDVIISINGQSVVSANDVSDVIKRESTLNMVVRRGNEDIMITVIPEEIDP

target: folate receptor gamma (FOLR3) with FLAG tag (human) (UniProt P41439); assay: affinity purification with mass spectrometry

binding	Molecule
binds	glutaminyl peptide cyclotransferase (from UniProt Q16769 29-361) (enzyme)
binds	serine protease HTRA1 (from UniProt Q92743 23-480) (enzyme)
binds	midkine (protein, UniProt P21741 21-143) VAKKKDKVKKGGPGSECAEWAWGPCTPSSKDCGVGFREGTCGAQTQRIRCRVPCNWKKEFGADCKYKFENWGACDGGTGTKVRQGTLKKARYNAQCQETIRVTKPCTPKTKAKAKAKKGKGKD
